Values from PubChem BioAssay AID686943 (Drosophila RNAi Screening Center, 2013).
Assay: 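Fly genes whose loss alters ERK activation after insulin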 (primary screen). System: Drosophila S2R+ haemocyte-like cells expressing YFP-tagged ERK (Rolled). Reagent: long dsRNA against Drosophila genes. Conditions: insulin stimulation versus unstimulated cells; dose and duration not given. Measurement: 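Per-plate z-scores of phospho-ERK immunostaining normalised to YFP-tagged ERK, measured with and without insulin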. Direction: replicate 1, z-score of dpERK with insulin and replicate 2, z-score of dpERK with insulin: higher = more active ERK per ERK-YFP after insulin; replicate 1, z-score of dpERK under basal conditions: higher = more basal active ERK per ERK-YFP; replicate 1, z-score of ERK-YFP with insulin: higher = more YFP-tagged ERK signal.
The screen tested about 23,000 reagents; shown is an unselected part of those that have a named target and a result. 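Extra replicates exist only for a retested subset of genes; insulin dose and duration not given; both raised and lowered dpERK matter.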 A plus sign joins genes that one reagent is predicted to hit. Not given: the amount of reagent, the time to read-out.

predicted target	PubChem SID	replicate 1, z-score of dpERK with insulin	replicate 2, z-score of dpERK with insulin	replicate 1, z-score of dpERK under basal conditions	replicate 1, z-score of ERK-YFP with insulin
CG11192 (GeneID 37309)	SID104185849	-0.32	-0.09	-0.79	0.18
ppk15 (GeneID 43188)	SID104194525	-2.15	-0.05	0.15	-0.51
CG31624 (GeneID 35393)	SID104182409	0.23	0.33	1.31	0.18
Fur1 (GeneID 47220)	SID104193499	1.06	0.14	0.2	-0.07
Fur1 (GeneID 47220)	SID104196468	0.94	0.39	-0.03	0
Larp7 (GeneID 44900)	SID104198590	-1.8	-1.31	-0.48	0.01
CG17124 (GeneID 34485)	SID104182372	-0.5	0.45	0.12	-0.46
eIF4H1 (GeneID 49809)	SID104200068	-0.2	-2.1	-0.34	0.83
CG7208 (GeneID 42172)	SID104196004	-0.14	0.26	0.75	0.09
Cyp4d1 (GeneID 31188)	SID104197486	-0.13	0.07	-2.14	0.89
Cyp4d1 (GeneID 31188)	SID104198248	-0.69	1.13	-0.07	0.4
CG3348 (GeneID 50082)	SID104195272	-0.26	0.01	0.98	-0.29
CG31882 (GeneID 319000)	SID104180876	0.63	0.91	0.9	0.52
Plekhm1 (GeneID 37520)	SID104184319	0.3	0.18	1.08	0.26
mats (GeneID 42634)	SID104193354	1.76	-0.66	0.32	0.48
mats (GeneID 42634)	SID104194494	0.85	0.46	-0.14	1.03
mab-21 (GeneID 44127)	SID104198583	1.51	0.62	0.36	-0.19
ohgt (GeneID 41230)	SID104195313	-0.71	-0.16	-1.32	1.89
side-VII (GeneID 41184)	SID104194370	0.35	0.58	-0.52	-1.65
IPIP (GeneID 33849)	SID104181956	-0.2	-0.5	-0.52	0.12
ps (GeneID 44258)	SID104194941	-0.46	-1.51	1.1	0.49
ps (GeneID 44258)	SID104194943	-3.21	-2.43	-1.48	-0.75
ps (GeneID 44258)	SID104194944	-1.57	-1.66	-0.92	-0.62
ps (GeneID 44258)	SID104196180	-1.51	-1.77	1.56	1.44
CG31548 (GeneID 318794)	SID104202046	0.99	1.48	0.52	-0.17
Dref (GeneID 34328)	SID104183111	-0.8	0.03	1.11	1.24
CG7394 (GeneID 39294)	SID104190627	-0.97	-0.16	-1.11	0.64
CG14777 (GeneID 31099)	SID104198355	1.46	-1.14	-0.55	-0.22
CG7945 (GeneID 39679)	SID104190726	-0.32	0.18	0.05	0.35
be (GeneID 32430)	SID104199399	-0.03	0.41	-0.52	-0.09
be (GeneID 32430)	SID104199736	1.44	0.63	-0.43	-0.63
be (GeneID 32430)	SID104199737	1.65	0.96	-0.1	-0.81
Gr92a (GeneID 117473)	SID104201325	-0.79	-0.11	0.29	1.71
ich (GeneID 41069)	SID104192507	-0.7	-0.37	-1.01	0.48
ich (GeneID 41069)	SID104194240	0.1	0.44	0.28	0.17
CG14947 (GeneID 34628)	SID104182221	-0.2	0.47	0.77	0.68
CG4483 (GeneID 39057)	SID104190218	-1.55	-0.38	0.44	1.21
mtSSB (GeneID 41968)	SID104196797	0.14	0	1.08	-0.53
CG31140 (GeneID 42836)	SID104193441	0.37	0.25	0.32	-0.1
CG31140 (GeneID 42836)	SID104194395	0.22	0.91	-1.66	0.82
CG31140 (GeneID 42836)	SID104195696	-0.18	0	0.19	0.49
CG15435 (GeneID 33655)	SID104180242	0.51	0.36	-0.54	-0.27
Mer (GeneID 32979)	SID104200051	0.33	1.36	0.86	0.19
Aven (GeneID 32215)	SID104199485	-0.55	0.44	-0.06	-0.07
e(y)3 (GeneID 32965)	SID104199242	-0.1	-0.61	-0.21	-2
CG7968 (GeneID 34802)	SID104181695	-0.06	0.88	1.8	0.22
RunxA (GeneID 4379817)	SID104200192	0.93	-0.31	0.6	-0.11
RunxA (GeneID 4379817)	SID104200290	-0.82	-2.19	-1.13	-1.48
RunxA (GeneID 4379817)	SID104200316	-0.04	-0.23	1.28	0.59
RunxA (GeneID 4379817)	SID104201539	-0.15	0.31	0.13	0.18
ms(3)76Ba (GeneID 40109)	SID104189883	0.58	0.29	-0.48	-0.27
Ir94g (GeneID 42768)	SID104195023	1.08	-0.4	1.33	0.63
CG14903 (GeneID 42014)	SID104194816	0.22	-0.3	0.38	0.49
t-Grip91 (GeneID 34931)	SID104181298	-0.02	-0.65	0.2	-0.2
Rbf (GeneID 31027)	SID104198496	0.14	-0.75	-0.59	-0.36
sro (GeneID 43512)	SID104194261	-0.25	-0.65	-0.35	0.91
LanB2 (GeneID 39118)	SID104191000	-0.06	0.24	0	0.28
CG10934 (GeneID 37013)	SID104185809	0.53	-0.04	-0.29	-0.39
CG14929 + CG14930	SID104182204	-0.04	0.18	0.57	1.31
Kaz-m1 (GeneID 43154)	SID104196782	0.35	0.32	-0.44	0.33
Mat89Ba (GeneID 41973)	SID104194332	-0.15	-0.93	-0.01	0.1
Nepl5 (GeneID 33892)	SID104183033	-0.48	-0.91	-0.2	1.01
Fum4 (GeneID 318995)	SID104202000	-0.11	0.56	0.32	-0.75
CG9121 (GeneID 33732)	SID104182934	0.13	-0.77	0.87	-2.02
NijC (GeneID 41568)	SID104194643	-0.44	-0.71	-0.32	0.15
CG9399 (GeneID 41157)	SID104196280	0.08	-0.2	1.42	-2.33
CG4995 (GeneID 34390)	SID104182593	0.69	0.08	0	0.09
galla-2 (GeneID 39221)	SID104190728	0.53	0.88	0.59	0.31
galla-2 (GeneID 39221)	SID104201563	1.38	0.73	-0.02	-1.12
xmas (GeneID 44271)	SID104201098	-0.5	0.96	2.33	-0.76
xmas (GeneID 44271)	SID104201721	0.11	1.61	1.2	-0.73
CG13575 (GeneID 37883)	SID104184003	0.64	0.89	0.06	-0.27
CG13575 (GeneID 37883)	SID104202210	0.79	0.82	0.39	0.72
